# According to US20220133752A1, “MINOCYCLINE FOR THE TREATMENT OF PITT-HOPKINS SYNDROME” (HEALX LTD, priority 2019, published 2022):
# “Also recorded” adds a separate entry of the source. For at least one compound, name, drawing or mass did not settle the structure.
# Key:
# Assay type in all cases: in vivo, mouse
# Tcf4 +/− mice [1] = experiment: Study 2 dose response experiments in behavioural tests; conditions: 30 mg/kg, FIG. 7
# Tcf4 +/− mice [2] = experiment: Test of Force (hind limb grip strength); conditions: chronic treatment of Tcf4+/− mice; hindlimb grip strength
# Tcf4 +/− mice [3] = experiment: Self-grooming (assessment of stereotypy); conditions: chronic treatment of Tcf4+/− mice
# Tcf4 +/− mice [4] = experiment: Nesting (test of daily living); conditions: chronic treatment of Tcf4+/− mice; nest building score, 5 point scale
# Tcf4 +/− mice [5] = experiment: Open field (measure of hyperactivity); conditions: chronic treatment of Tcf4+/− mice; locomotor activity
# Tcf4 +/− mice [6] = experiment: Fear conditioning (test of learning and memory); conditions: chronic treatment of Tcf4+/− mice; freezing response
# Tcf4 +/− mice [7] = experiment: Sociability/Partition test (assessment of social anxiety); conditions: chronic treatment of Tcf4+/− mice; three-chamber task, exploration ratio
smiles,measurement,setting,value
"CN(C)c1ccc(O)c2c1C[C@H]1C[C@H]3[C@H](N(C)C)C(O)=C(C(N)=O)C(=O)[C@@]3(O)C(O)=C1C2=O [minocycline, (4˜{S},4˜{a}˜{S},5˜{a}˜{R},12˜{a}˜{R})-4,7-bis(dimethylamino)-1,10,11,12˜{a}-tetrahydroxy-3,12-dioxo-4˜{a}, 5,5˜{a},6-tetrahydro-4˜{H}-tetracene-2-carboxamide]",all the behavioral tests (dose response),Tcf4 +/− mice [1],rescued
same,test of force (strength),Tcf4 +/− mice [2],rescuing; also recorded: significantly improved
same,self-grooming (stereotypy),Tcf4 +/− mice [3],rescuing; also recorded: significantly improved
same,nesting (tests of daily living),Tcf4 +/− mice [4],rescuing; also recorded: significantly improved
same,open field (hyperactivity),Tcf4 +/− mice [5],rescuing; also recorded: significantly improved
same,fear conditioning (learning and memory),Tcf4 +/− mice [6],rescuing; also recorded: significantly improved
same,sociability (social anxiety),Tcf4 +/− mice [7],rescuing; also recorded: significantly improved
